According to patent JP2022028645A:
Results are given in words; binding and its absence hold for the method and conditions named. Some entries that bind do so weakly or less than the wild type. Blank lines part the entries; values can stand above or below the binder they belong to.

The chains behind the UniProt entries cited, without tags or fusion partners. Where a name states a change or a piece, a line headed by the entry shows the natural chain unless it says otherwise.
UniProt P17643: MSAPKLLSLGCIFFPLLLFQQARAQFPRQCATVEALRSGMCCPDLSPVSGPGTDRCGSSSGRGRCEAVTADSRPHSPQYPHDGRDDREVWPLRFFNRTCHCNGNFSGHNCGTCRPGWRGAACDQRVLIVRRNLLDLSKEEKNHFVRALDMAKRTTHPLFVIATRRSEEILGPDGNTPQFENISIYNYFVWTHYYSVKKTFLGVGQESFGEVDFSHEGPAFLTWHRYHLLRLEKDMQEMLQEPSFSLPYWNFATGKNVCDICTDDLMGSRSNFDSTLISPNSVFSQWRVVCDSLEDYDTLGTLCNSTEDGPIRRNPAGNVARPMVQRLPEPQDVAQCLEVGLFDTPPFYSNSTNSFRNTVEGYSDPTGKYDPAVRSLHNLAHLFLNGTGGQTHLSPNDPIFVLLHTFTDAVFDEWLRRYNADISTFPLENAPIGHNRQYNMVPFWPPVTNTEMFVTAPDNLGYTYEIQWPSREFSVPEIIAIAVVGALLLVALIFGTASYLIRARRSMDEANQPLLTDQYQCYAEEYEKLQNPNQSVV
UniProt P07766: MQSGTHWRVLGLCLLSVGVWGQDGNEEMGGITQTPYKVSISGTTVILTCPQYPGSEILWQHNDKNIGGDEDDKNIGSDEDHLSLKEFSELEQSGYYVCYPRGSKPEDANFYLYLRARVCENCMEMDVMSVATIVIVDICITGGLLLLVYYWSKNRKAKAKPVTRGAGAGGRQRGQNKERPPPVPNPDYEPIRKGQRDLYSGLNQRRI

Experiments:
[1] = biological target: 組み換えTYRP1(Sino Biologicals) (bought recombinant human TYRP1) (human) (UniProt P17643); experiment: SPR, relative active concentration after 14 days at 37 or 40 degrees C, recombinant TYRP1 (Sino Biologicals) as antigen
[2] = biological target: Human CD3 expressed on Jurkat NFAT reporter T cells (human) (UniProt P07766); experiment: flow cytometry on CD3-expressing cells (cell type not named there), IgG format
[3] = biological target: Human CD3 expressed on Jurkat NFAT reporter T cells (human) (UniProt P07766); experiment: flow cytometry on Jurkat NFAT cells, PE anti-human Fc secondary antibody

binding [1]: binds
B1: TYRP1 IgG (the TYRP1 binder of the TCB in IgG format) (antibody, V domains shown)
VH: QVQLVQSGAEVKKPGASVKVSCKASGFNIKDYFLHWVRQAPGQGLEWMGWINPDNGNTVYAQKFQGRVTMTADTSTSTVYMELSSLRSEDTAVYYCTRRDYTYEKAALDYWGQGTLVTVSS
VL: DIQMTQSPSSLSASVGDRVTITCRASGNIYNYLAWYQQKPGKVPKLLIYDAKTLADGVPSRFSGSGSGTDFTLTISSLQPEDVATYYCQHFWSLPFTFGQGTKLEIK

binding [2]: binds
binding [3]: binds
B2: CD3 opt ヒトIgG1 PGLALA (optimized CD3 binder, human IgG1 with P329G L234A L235A) (antibody, V domains shown)
VH: EVQLLESGGGLVQPGGSLRLSCAASGFQFSSYAMNWVRQAPGKGLEWVSRIRSKYNNYATYYADSVKGRFTISRDDSKNTLYLQMNSLRAEDTAVYYCVRHTTFPSSYVSYYGYWGQGTLVTVSS
VL: QAVVTQEPSLTVSPGGTVTLTCGSSTGAVTTSNYANWVQEKPGQAFRGLIGGTNKRAPGTPARFSGSLLGGKAALTLSGAQPEDEAEYYCALWYSNLWVFGGGTKLTVLR
